Measurements published in paper PMC12432198.
No constants are given. Whether binding was seen depends on the method and setting. Binding seen in cells or lysates may run through a third protein. A yes stands for co-enrichment or nearness to the bait. Other partners may have been found. Sequences can lack the tags named with a protein.

The chains behind the UniProt entries cited, without tags or fusion partners.
UniProt Q09472: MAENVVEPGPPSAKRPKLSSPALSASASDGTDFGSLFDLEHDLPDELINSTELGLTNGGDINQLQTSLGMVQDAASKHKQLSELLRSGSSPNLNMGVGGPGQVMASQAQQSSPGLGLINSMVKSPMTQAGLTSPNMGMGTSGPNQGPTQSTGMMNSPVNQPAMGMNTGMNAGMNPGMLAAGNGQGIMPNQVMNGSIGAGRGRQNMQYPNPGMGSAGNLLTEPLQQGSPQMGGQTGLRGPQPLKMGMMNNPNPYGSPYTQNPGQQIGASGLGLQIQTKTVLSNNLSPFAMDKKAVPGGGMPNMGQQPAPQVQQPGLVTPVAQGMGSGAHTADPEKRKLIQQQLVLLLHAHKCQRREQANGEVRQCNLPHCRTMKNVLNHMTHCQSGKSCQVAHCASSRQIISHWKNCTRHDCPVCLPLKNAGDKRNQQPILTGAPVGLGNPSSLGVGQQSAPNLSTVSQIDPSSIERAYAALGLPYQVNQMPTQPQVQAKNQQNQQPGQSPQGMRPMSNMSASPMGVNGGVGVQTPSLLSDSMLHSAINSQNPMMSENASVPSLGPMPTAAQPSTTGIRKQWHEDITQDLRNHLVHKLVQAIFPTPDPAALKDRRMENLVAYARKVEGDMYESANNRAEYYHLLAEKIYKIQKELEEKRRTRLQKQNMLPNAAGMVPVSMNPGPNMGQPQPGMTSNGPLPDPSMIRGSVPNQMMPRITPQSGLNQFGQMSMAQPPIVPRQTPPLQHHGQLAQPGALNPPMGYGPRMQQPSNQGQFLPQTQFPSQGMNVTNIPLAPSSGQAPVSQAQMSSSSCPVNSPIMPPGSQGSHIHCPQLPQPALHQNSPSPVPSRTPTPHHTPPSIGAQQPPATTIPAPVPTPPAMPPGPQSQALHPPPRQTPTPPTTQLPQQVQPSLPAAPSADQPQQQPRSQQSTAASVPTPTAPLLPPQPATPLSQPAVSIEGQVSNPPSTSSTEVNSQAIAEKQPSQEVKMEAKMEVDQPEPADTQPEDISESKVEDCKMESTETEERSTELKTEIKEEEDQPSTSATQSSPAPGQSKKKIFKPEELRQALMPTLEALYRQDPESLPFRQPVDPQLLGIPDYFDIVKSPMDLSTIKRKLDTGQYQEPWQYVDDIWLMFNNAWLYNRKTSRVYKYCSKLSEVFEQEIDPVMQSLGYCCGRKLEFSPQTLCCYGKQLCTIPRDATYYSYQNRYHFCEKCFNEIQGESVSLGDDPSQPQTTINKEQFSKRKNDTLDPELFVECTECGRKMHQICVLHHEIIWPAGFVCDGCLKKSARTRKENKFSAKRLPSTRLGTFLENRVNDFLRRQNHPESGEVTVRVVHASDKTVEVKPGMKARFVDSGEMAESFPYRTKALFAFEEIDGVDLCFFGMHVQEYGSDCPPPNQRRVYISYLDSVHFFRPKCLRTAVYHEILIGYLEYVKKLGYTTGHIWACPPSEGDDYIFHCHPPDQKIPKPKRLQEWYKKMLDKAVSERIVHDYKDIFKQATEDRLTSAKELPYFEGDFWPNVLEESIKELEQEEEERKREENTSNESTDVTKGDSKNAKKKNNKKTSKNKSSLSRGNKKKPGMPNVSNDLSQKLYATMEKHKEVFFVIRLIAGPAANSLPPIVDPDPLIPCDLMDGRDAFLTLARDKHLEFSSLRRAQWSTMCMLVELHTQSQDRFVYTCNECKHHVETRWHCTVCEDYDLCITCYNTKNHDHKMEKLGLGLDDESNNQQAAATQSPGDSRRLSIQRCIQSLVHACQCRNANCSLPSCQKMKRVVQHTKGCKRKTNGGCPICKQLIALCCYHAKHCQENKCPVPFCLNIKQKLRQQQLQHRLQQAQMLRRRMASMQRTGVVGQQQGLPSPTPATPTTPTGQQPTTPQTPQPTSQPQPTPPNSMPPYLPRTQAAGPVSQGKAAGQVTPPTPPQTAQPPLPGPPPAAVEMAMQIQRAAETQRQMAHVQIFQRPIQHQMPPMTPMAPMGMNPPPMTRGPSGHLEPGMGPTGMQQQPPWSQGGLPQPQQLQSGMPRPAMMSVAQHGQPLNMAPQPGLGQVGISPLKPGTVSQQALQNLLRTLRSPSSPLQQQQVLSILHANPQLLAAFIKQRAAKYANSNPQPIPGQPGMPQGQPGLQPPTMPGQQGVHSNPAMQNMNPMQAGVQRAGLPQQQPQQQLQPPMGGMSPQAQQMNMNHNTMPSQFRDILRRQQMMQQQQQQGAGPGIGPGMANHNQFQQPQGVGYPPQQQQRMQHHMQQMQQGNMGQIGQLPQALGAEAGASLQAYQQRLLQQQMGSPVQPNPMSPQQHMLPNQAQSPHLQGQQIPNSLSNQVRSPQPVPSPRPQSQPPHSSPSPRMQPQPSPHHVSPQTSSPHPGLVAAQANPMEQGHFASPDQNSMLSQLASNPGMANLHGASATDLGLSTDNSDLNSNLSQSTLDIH

Target: T1, Flag-GCLC ectopically expressed in Huh7 cells (human) (UniProt P48506)
T1 sequence: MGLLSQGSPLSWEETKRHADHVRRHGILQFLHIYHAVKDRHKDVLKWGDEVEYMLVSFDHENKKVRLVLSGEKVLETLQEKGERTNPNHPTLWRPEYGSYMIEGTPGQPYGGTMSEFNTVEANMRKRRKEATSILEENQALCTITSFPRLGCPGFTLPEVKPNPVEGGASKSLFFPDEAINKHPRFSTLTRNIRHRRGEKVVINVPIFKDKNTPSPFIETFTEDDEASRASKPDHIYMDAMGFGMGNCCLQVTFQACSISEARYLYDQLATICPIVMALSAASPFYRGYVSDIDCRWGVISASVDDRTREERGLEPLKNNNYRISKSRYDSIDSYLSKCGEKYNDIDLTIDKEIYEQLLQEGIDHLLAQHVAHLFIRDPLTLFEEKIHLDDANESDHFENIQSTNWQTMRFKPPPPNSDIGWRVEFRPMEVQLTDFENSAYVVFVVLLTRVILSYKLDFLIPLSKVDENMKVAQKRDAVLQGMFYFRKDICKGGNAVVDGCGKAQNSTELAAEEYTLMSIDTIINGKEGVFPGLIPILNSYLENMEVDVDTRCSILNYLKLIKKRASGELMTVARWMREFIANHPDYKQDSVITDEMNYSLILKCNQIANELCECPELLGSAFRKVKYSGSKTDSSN
Assay: affinity purification with mass spectrometry; tandem affinity purification coupled with mass spectrometry on lysates of Huh7 cells ectopically expressing Flag-GCLC

binding: binds
Substance: histone acetyltransferase P300 (found with Flag-GCLC in Huh7 lysates) (from UniProt Q09472 1-2414) (enzyme)
